Paper PMC4096430
No constants are given. Whether binding was seen depends on the method and setting. Binding seen in cells or lysates may run through a third protein. Some entries that bind do so weakly or less than the wild type. Where a sequence is shown, tags or fusion partners need not be part of it.

By UniProt entry, the sequences of proteins in these tests, tags left out. Where a name states a change or a piece, a line headed by the entry shows the natural chain unless it says otherwise. Chains listed by the source or under a name are the forms on record and can include a tag or linker. Residues count along the entry.
UniProt Q96B97: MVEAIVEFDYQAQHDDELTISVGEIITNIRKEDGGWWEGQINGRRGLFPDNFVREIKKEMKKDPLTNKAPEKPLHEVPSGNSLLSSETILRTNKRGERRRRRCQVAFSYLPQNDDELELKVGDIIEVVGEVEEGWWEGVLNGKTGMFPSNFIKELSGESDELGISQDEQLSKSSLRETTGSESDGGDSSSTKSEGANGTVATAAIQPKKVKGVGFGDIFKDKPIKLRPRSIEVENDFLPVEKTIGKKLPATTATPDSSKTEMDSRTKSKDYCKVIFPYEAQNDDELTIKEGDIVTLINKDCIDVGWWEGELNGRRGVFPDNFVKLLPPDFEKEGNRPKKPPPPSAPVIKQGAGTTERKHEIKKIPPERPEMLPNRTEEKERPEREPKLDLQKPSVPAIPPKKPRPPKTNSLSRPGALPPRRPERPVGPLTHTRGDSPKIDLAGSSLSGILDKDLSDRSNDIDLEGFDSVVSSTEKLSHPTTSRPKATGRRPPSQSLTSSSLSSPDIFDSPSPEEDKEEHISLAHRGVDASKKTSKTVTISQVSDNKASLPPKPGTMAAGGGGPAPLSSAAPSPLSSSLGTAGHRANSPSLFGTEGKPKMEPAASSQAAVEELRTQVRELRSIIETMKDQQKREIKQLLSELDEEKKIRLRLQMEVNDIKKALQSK
CIN85-ΔCC (deletion of amino acid 601 to 665), Flag-tagged: residues 1-600 of Q96B97

Key:
[1] = molecular target: CIN85-ΔCC (deletion of amino acid 601 to 665), Flag-tagged (UniProt Q96B97); assay: co-IP; Flag-tagged CIN85 or CIN85-ΔCC co-expressed with tagged (eGFP) Vps protein in HEK293 cells; CIN85 immunoprecipitated by anti-Flag antibody, Vps protein detected by Western blot
[2] = molecular target: CIN85 (Cbl-interacting protein of 85 kDa), wild type, Flag-tagged (UniProt Q96B97); assay: as above

B1: CHMP4B (Vps32B), eGFP-tagged (protein, UniProt Q9H444 1-224)
chain: MSVFGKLFGAGGGKAGKGGPTPQEAIQRLRDTEEMLSKKQEFLEKKIEQELTAAKKHGTKNKRAALQALKRKKRYEKQLAQIDGTLSTIEFQREALENANTNTEVLKNMGYAAKAMKAAHDNMDIDKVDELMQDIADQQELAEEISTAISKPVGFGEEFDEDELMAELEELEQEELDKNLLEISGPETVPLPNVPSIALPSKPAKKKEEEDDDMKELENWAGSM
In the case of B1, the binding [1] is reported as “binds weakly” and the binding [2] is reported as “binds weakly”.

B2: CHMP2A (Vps2A), tagged (protein, UniProt O43633 1-222)
chain: MDLLFGRRKTPEELLRQNQRALNRAMRELDRERQKLETQEKKIIADIKKMAKQGQMDAVRIMAKDLVRTRRYVRKFVLMRANIQAVSLKIQTLKSNNSMAQAMKGVTKAMGTMNRQLKLPQIQKIMMEFERQAEIMDMKEEMMNDAIDDAMGDEEDEEESDAVVSQVLDELGLSLTDELSNLPSTGGSLSVAAGGKKAEAAASALADADADLEERLKNLRRD
B2 was tested, and the binding [1] was “binds” and the binding [2] was “binds”.

B3: CHMP4C (Vps32C), tagged (protein, UniProt Q96CF2 1-233)
chain: MSKLGKFFKGGGSSKSRAAPSPQEALVRLRETEEMLGKKQEYLENRIQREIALAKKHGTQNKRAALQALKRKKRFEKQLTQIDGTLSTIEFQREALENSHTNTEVLRNMGFAAKAMKSVHENMDLNKIDDLMQEITEQQDIAQEISEAFSQRVGFGDDFDEDELMAELEELEQEELNKKMTNIRLPNVPSSSLPAQPNRKPGMSSTARRSRAASSQRAEEEDDDIKQLAAWAT
For B3, the binding [1] was “binds” and the binding [2] was “binds”.
